From PubChem BioAssay AID504582 (Broad Institute, 2011)
The whole screen tested about 340,000 compounds, of which about 2,300 (0.68%) were called active. Only results without a clear call are listed here; the source files them as inconclusive. No stated cut-off is given here; in the data, active means growth rescue above about 28% (passing the limit was not always enough); inconclusive means no clear call, values can overlap the other calls.

Assay: rescue of yeast from PfHsp40 toxicity, primary screen, S. cerevisiae, ATP luminescence (AID 504582);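 further: yeast W303a lacking pdr1 and pdr3 grown in galactose medium; growth measured after three days at 30 °C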
Conditions: S. cerevisiae expressing PfHsp40, growth rescue, at 12.5 µM, active compounds read high

SMILES | growth rescue
CC(C)c1ccc(OP(C)(=O)Nc2ccc(SC(F)(F)F)cc2)cc1 (configuration not stated) | inconclusive: 35.3%
COc1ccc(OP(C)(=O)Nc2ccccn2)cc1 (configuration not stated) | inconclusive: 26.6%
